# Measurements taken from PubChem BioAssay AID540256 (National Center for Advancing Translational Sciences (NCATS), 2011).
# Hit rate of the full screen: of about 300,000 compounds, about 3,700 (1.2%) were called active. The shares of active, inactive and inconclusive entries below differ from those in the screen. The call rests on the fitted dose curve; tested in HEK293 cells. Potencies of inconclusive entries are doubtful fits and often do not repeat.
# Assay: qHTS for Inhibitors of binding or entry into cells for Lassa Virus; further: nearly all actives have a fitted effect of over 50% in size
# Details: Lassa virus pseudotype entry inhibition, cell reporter; activity change, negative = inhibition: at 37.9 µM (top of the series) unless noted
# On the % scale 0 is the no-effect control and ±100 the full control effect; potency means the concentration at half of the fitted maximal effect.
Structure (SMILES),Potency,"activity change, negative = inhibition"
S=C(Nc1cc(Cl)cc(Cl)c1)N1CCN(c2ccccn2)CC1,"inconclusive: 5.01 µM [inhibitor, full curve, poor fit]",
Cc1cccc(-c2cc(C(=O)N/N=C/c3cccnc3)c3ccccc3n2)c1,inactive,
COc1ccc(OC)c(-c2cc(C(=O)N/N=C/c3ccc(F)cc3)c3ccccc3n2)c1,"inconclusive: 28.2 µM [inhibitor, partial curve, poor fit]",
CC(C)CN(C(=O)COC(=O)c1cnc(Cl)c(Cl)c1)c1c(N)n(Cc2ccccc2)c(=O)[nH]c1=O,"inconclusive: 35.5 µM [inhibitor, single point]",
Cc1cc(NC(=S)N(CCCN2CCN(C)CC2)Cc2ccco2)ccc1Cl,"inconclusive: 35.5 µM [inhibitor, single point]",
O=C(Nc1cc2c(cc1C(=O)O)OCCCO2)c1ccc(F)cc1F,"inconclusive: 0.708 µM [inhibitor, single point]",
CCOC(=O)c1ccc(NC(=O)C2CCCN(S(=O)(=O)c3ccc(F)cc3)C2)cc1 (stereo not drawn),"inconclusive: 3.26 µM [inhibitor, partial curve, poor fit]",
O=S(=O)(c1ccccc1)c1nc(-c2ccc(F)cc2)oc1NCc1ccccc1,inactive,
COc1cc(C(=O)NCC(=O)OCCN2C(=O)c3ccccc3C2=O)cc(OC)c1OC,"inconclusive: 5.62 µM [inhibitor, full curve]",
O=C(NCc1ccccc1)NC1COc2ccccc2C1 (stereo not drawn),inactive,
COc1ccccc1C(=O)Nc1nnc(SCC(=O)NC2CCCC2)s1,"inconclusive: 3.98 µM [inhibitor, full curve, poor fit]",
CCOC(=O)c1cnc(SCCc2ccccc2)nc1N,"inconclusive: 20.6 µM [inhibitor, single point]",
Cc1nc(-c2ccccc2)n2nc(NCCCN3CCOCC3)ncc12,"inconclusive: 0.0044 µM [inhibitor, full curve, poor fit]",
COc1ccc(S(=O)(=O)N2CCc3ccccc32)cc1C(=O)N1CCC(C)CC1,"inconclusive: 10 µM [inhibitor, partial curve, poor fit]",
CN(C)c1ccc(-[n+]2c(-c3ccccc3)cc(-c3ccccc3)cc2-c2ccccc2)cc1,"inconclusive: 2.24 µM [inhibitor, full curve, poor fit]",
CC1CCC(C(C)C)C(OC(=O)COC(=O)c2ccccc2N)C1 (stereo not drawn),"inconclusive: 3.98 µM [inhibitor, partial curve, poor fit]",
COc1ccc2[nH]c(=O)c(CNc3ccccc3C)cc2c1,"inconclusive: 25.1 µM [inhibitor, single point]",
CCN(CC(=O)NCc1cccs1)C(=O)c1cccc(S(=O)(=O)N2CCc3ccccc32)c1,"inconclusive: 12.6 µM [inhibitor, partial curve]",
O=C(CN1C(=O)NC(Cc2c[nH]c3ccccc23)C1=O)NCCc1ccccc1 (stereo not drawn),"inconclusive: 1 µM [inhibitor, full curve, poor fit]",
CCCCCCCC[n+]1cccc(C(=O)N(CC)CC)c1,inactive,
COc1ccccc1C=C1SC(=S)NC1=O,"inconclusive: 0.631 µM [activator, full curve, poor fit]",
Nc1nonc1-c1noc(COc2ccccc2Cl)n1,"inconclusive: 1.16 µM [activator, single point]",
NC(=O)C1CCN(Cc2ccc(OCc3ccccc3)cc2)CC1,inactive,

Structure (SMILES),Potency,"activity change, negative = inhibition"
COC(=O)CSc1nc(N)nc(C)c1Br,"inconclusive: 35.5 µM [activator, single point]",
O=C(Nc1ccc(N2CCOCC2)cc1)c1ccc([N+](=O)[O-])o1,inactive,
COc1cccc(C(=O)Nc2nnc(C3CCCO3)s2)c1 (stereo not drawn),"inconclusive: 2.51 µM [activator, partial curve]",
O=C(Nc1nnc(-c2cccs2)s1)c1cccc(F)c1,"inconclusive: 0.708 µM [activator, partial curve, poor fit]",
COc1ccc(-c2cc(C(=O)NC(Cc3c[nH]c4ccccc34)C(=O)O)c(C)o2)cc1OC (stereo not drawn),"inconclusive: 5.62 µM [activator, single point]",
COc1cccc(/C=N/n2c(-c3cc(C)[nH]n3)n[nH]c2=S)c1O,"inconclusive: 35.5 µM [inhibitor, single point]",
Cc1cccc(NC(=S)NC(C)CCc2ccccc2)c1 (stereo not drawn),inactive,
O=c1c2ccccc2sc2nc(CCl)nn12,"inconclusive: 5.01 µM [inhibitor, partial curve]",
COc1cccc(-c2nc(-c3ccccn3)no2)c1,active: 1.46 µM,
CN(C)S(=O)(=O)c1cccc(NC(=O)CSc2cccc3cccnc23)c1,inactive,
COc1ccc(OC)c(Nc2nc(-c3cccc([N+](=O)[O-])c3)nc3ccccc23)c1,inactive,
O=C(Nc1ccc(NC(=O)C2CC2)cn1)c1ccccc1Cl,"inconclusive: 35.5 µM [inhibitor, single point]",
C=C1CCC[C@]2(C)C[C@H]3OC(=O)C(CN[C@@H](C)c4ccccc4)[C@H]3CC12 (stereo partly drawn),"inconclusive: 1.26 µM [inhibitor, full curve, poor fit]",
CCC(=O)Nc1ccc(S(=O)(=O)NCCc2ccccc2)cc1,"inconclusive: 16.4 µM [inhibitor, partial curve, poor fit]",
CCc1ccc(CN2CCN(C(=O)c3ccco3)CC2)cc1,inactive,
Cc1ccccc1C(=O)Nc1ccc(N2CCCCCC2)cc1,"inconclusive: 20 µM [inhibitor, single point]",
CC(=O)N1c2ccccc2Oc2cc3ccccc3cc21,"inconclusive: 1.03 µM [activator, full curve]",
C=CCNC(=S)N/N=C(\C)c1ccc(OC)cc1,"inconclusive: 1.46 µM [inhibitor, full curve]",
Cc1cc(NC(=O)C(C)SCC(=O)N(C)CC(=O)Nc2ccccc2C(F)(F)F)no1 (stereo not drawn),"inconclusive: 0.708 µM [inhibitor, single point]",
Cc1ccc(-n2ncc3c(NCCc4ccc(S(N)(=O)=O)cc4)ncnc32)cc1,inactive,
S=C(NCCc1ccccn1)Nc1ccc(Cl)cc1Cl,inactive,
CCC(C)Nc1nc2c(c(=O)[nH]c(=O)n2C)n1Cc1ccc(F)cc1 (stereo not drawn),inactive,
Cc1nnc(-c2ccc(Oc3ccc(C)c(C)c3)c([N+](=O)[O-])c2)o1,"inconclusive: 20 µM [inhibitor, single point]",

Structure (SMILES),Potency,"activity change, negative = inhibition"
CC(=O)Nc1ccc(NC(=O)CC2SC(=O)N(CC(=O)c3ccccc3)C2=O)cc1 (stereo not drawn),inactive,
CC(C)=CCN1CCN(Cc2ccc(C)s2)CC1CCO (stereo not drawn),"inconclusive: 1.26 µM [inhibitor, full curve, poor fit]",
CCCCc1nc2c(=O)[nH]c3ccccc3c2o1,"inconclusive: 0.0411 µM [activator, full curve]",
COc1ccc(-c2csc(NC(=O)C3CC(=O)N(c4ccc5c(c4)OCCO5)C3)n2)cc1 (stereo not drawn),"inconclusive: 25.1 µM [inhibitor, single point]",
COc1ccc(Cc2nnc(SCC(=O)NC3(C#N)CCCCC3)n2N)cc1,,inconclusive: 5.64% [activator]
CCCC(=O)C1=C(O)C(C(=O)OC)C(C)(C)CC1=NCCc1ccccc1 (stereo not drawn),"inconclusive: 10 µM [inhibitor, partial curve, poor fit]",
CCCCC(=O)N/C(N)=N/c1nc2ccccc2o1,"inconclusive: 22.4 µM [inhibitor, single point]",
CC(=O)c1ccc2c(c1)C1C(Cl)C(Sc3ccccc3[N+](=O)[O-])CC1C(C(=O)O)N2 (stereo not drawn),inactive,
C/C(=N\NC(=O)Cc1ccc(Cl)cc1)c1ccccn1,active: 8.2 µM,
O=C(Nc1nc2ccccc2n1CCOc1ccccc1)c1ccco1,"inconclusive: 17.8 µM [inhibitor, partial curve, poor fit]",
O=C(NCCc1ccc(Cl)cc1)c1ccc(Nc2nc3ccccc3n3nnnc23)cc1,"inconclusive: 3.16 µM [inhibitor, single point]",
O=C(CN1C(=O)C2CC=CCC2C1=O)Nc1nc2ccc(F)cc2s1 (stereo not drawn),inactive,
Cc1ccc(/C=N/Nc2ccccn2)s1,"inconclusive: 22.4 µM [activator, single point]",
COC(=O)Cn1c(C)nc([N+](=O)[O-])c1Br,"inconclusive: 10 µM [inhibitor, partial curve]",
Nc1ccc2nc(-c3ccc(N)c(Cl)c3)[nH]c2c1,"inconclusive: 0.794 µM [activator, full curve, poor fit]",
CC(C)COC(=O)N1CCCC1C(=O)Nc1nccs1 (stereo not drawn),"inconclusive: 5.62 µM [activator, single point]",
O=C(Nc1ccc(S(=O)(=O)N2CCCC2)cc1)C1CC(=O)N(c2ccc(F)cc2)C1 (stereo not drawn),"inconclusive: 10 µM [inhibitor, partial curve, poor fit]",
CCn1cc2nc(SCc3cc(C)ccc3C)n(Cc3ccc(Cl)cc3)c(=O)c2n1,inactive,
CCOc1ccc2oc(C(=O)OCC(=O)N3CCCC(C)C3)c(C)c2c1 (stereo not drawn),"inconclusive: 12.6 µM [inhibitor, partial curve]",
COc1ccc(CN(C)CC(=O)Nc2ccccc2-c2ccccc2)c(OC)c1,"inconclusive: 35.5 µM [inhibitor, single point]",
CCOC(=O)CSC1=NC(=O)/C(=C/c2ccc(OC)cc2)S1,"inconclusive: 16.4 µM [inhibitor, partial curve, poor fit]",
CCOc1ccc2nc(NC3=NC(c4ccc(OC)cc4)CC(=O)N3)nc(C)c2c1 (stereo not drawn),"inconclusive: 8.2 µM [inhibitor, partial curve, poor fit]",

# Record cards, as listed above:
# COc1ccc(OC)c(Nc2nc(-c3cccc([N+](=O)[O-])c3)nc3ccccc23)c1 is listed as Potency: inactive
# O=C(NCCc1ccc(Cl)cc1)c1ccc(Nc2nc3ccccc3n3nnnc23)cc1 is listed as Potency: inconclusive: 3.16 µM [inhibitor, single point]
# CC(C)COC(=O)N1CCCC1C(=O)Nc1nccs1 (stereo not drawn) is listed as Potency: inconclusive: 5.62 µM [activator, single point]
